The source of these data is paper PMC7862700.

Only a part is listed here, and it is no random draw. At the low end of the ranking, values are background and their order means little.

Assay in all cases: DAPPL (digital affinity profiling via proximity ligation, sequencing)
Common to all, as to conditions: 10 mM Tris-HCl pH 7.5, 50 mM NaCl, 1 mM DTT, 4% glycerol, room temperature, 30 min; GST-TFs on glutathione beads, 16-mer random dsDNA library, 0.1% …; high values mean tight binding; double strand, one strand shown; scale: fold enrichment (6-mer frequency, TF over GST control)

One assay addresses T1, ELK1 (UniProt P19419).
T1 sequence: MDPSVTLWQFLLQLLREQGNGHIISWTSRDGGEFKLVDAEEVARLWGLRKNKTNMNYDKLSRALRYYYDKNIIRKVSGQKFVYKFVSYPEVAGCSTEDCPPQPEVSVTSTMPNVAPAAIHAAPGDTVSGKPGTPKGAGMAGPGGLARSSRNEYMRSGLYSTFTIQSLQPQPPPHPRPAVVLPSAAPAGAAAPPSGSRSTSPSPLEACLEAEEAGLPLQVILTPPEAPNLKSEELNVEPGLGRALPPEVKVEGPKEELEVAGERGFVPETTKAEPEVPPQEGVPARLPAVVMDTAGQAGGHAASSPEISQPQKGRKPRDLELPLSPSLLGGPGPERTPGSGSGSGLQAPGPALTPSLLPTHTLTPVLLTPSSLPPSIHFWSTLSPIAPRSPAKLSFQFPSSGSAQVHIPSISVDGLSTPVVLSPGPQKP

In a further assay the target is T2, ELK3 (UniProt P41970).
T2 sequence: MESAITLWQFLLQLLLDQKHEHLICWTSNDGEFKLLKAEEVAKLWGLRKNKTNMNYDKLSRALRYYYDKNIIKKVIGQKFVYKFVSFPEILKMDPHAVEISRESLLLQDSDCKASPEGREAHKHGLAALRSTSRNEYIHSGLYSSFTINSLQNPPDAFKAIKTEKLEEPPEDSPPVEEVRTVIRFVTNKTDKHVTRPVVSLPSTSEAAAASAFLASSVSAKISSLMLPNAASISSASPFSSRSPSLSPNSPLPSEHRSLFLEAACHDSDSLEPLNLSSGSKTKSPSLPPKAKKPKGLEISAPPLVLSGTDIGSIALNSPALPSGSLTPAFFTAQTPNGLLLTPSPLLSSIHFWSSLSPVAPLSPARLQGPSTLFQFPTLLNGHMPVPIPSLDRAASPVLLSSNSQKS

A further assay addresses T3, SPIC (UniProt Q8N5J4).
T3 sequence: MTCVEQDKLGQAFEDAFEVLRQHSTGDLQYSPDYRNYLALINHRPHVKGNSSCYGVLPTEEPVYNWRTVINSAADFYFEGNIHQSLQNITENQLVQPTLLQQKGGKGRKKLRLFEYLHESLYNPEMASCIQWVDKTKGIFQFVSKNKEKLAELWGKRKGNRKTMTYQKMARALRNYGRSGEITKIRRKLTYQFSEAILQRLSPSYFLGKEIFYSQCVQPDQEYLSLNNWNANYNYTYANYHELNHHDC

For the next assay, the target named is T4, ETS2 (UniProt P15036).
T4 sequence: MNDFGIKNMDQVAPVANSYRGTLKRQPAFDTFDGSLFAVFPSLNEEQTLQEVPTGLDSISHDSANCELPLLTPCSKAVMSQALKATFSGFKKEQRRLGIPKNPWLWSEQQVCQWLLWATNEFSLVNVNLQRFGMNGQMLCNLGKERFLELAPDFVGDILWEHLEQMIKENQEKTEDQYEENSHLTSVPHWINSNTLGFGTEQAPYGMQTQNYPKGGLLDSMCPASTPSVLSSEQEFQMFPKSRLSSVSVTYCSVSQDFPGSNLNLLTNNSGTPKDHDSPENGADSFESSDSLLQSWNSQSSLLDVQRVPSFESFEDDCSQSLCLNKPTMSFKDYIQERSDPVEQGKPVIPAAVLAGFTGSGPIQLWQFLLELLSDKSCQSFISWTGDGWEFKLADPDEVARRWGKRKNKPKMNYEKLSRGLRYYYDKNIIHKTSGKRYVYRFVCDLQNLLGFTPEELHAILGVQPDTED

The next assay addresses T5, ETV3 (UniProt P41162-2).
T5 sequence: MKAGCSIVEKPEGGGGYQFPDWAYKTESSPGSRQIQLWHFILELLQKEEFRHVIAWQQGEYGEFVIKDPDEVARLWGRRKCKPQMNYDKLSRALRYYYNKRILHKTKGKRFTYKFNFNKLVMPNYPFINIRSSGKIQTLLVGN

Turning to GAGAGA, the binding signal in the assay with ELK1 was found to be 0.406; with ELK3, 0.505; in the assay with SPIC, 0.401; with ETS2, 0.413; with ETV3, 0.419.
Taken in the same sequence, the figures for GTGAAT were 0.803, 0.766, 0.794, 0.8 and 0.847.
Consider TAGACC, for which the binding signal with ELK1 was 0.852; in the assay with ELK3, 0.803; in the assay with SPIC, 0.793; with ETS2, 0.814; with ETV3 it was 0.801.
For the sequence GACTGG, the binding signal with ELK1 was found to be 0.611; with ELK3, 0.668; with SPIC, 0.564; with ETS2, 0.64; in the assay with ETV3 it was 0.603.
Taken in the same sequence, the figures for CGTAAG were 0.741, 0.788, 0.746, 0.756 and 0.713.
For CAGCCA the same measures were 0.849, 0.843, 0.784, 0.831 and 0.834.
Regarding CAGGGC, the binding signal came out at 0.807 in the assay with ELK1; 0.765 with ELK3; 0.74 with SPIC; 0.736 with ETS2; 0.819 in the assay with ETV3.
For the sequence GTAAGA, the binding signal was found to be 0.793 with ELK1; 0.87 in the assay with ELK3; 0.891 with SPIC; 0.77 with ETS2; 0.742 with ETV3.
Consider TCCGTG, for which the binding signal was determined as 0.515 with ELK1; 0.507 with ELK3; 0.531 with SPIC; 0.527 with ETS2; 0.513 with ETV3.
GGAAGG: the binding signal with ELK1 came to 0.844; with ELK3, 0.805; with SPIC, 0.795; in the assay with ETS2, 0.848; in the assay with ETV3 it was 0.899.
Consider GATCCG, for which the binding signal was 1.01 with ELK1; 0.968 in the assay with ELK3; 0.96 with SPIC; 0.958 in the assay with ETS2; 0.997 with ETV3.
As to GATGAG, the binding signal turned out to be 0.805 with ELK1; 0.798 with ELK3; 0.917 in the assay with SPIC; 0.853 with ETS2; 0.841 with ETV3.
For CAGTTT, the binding signal in the assay with ELK1 turned out to be 0.924; with ELK3, 1.04; with SPIC it was 0.897; with ETS2 it was 0.871; with ETV3, 0.973.
As to AGCGGT, the binding signal amounted to 0.696 with ELK1; 0.692 with ELK3; 0.827 with SPIC; 0.71 in the assay with ETS2; 0.702 with ETV3.
GTCGTA: the binding signal with ELK1 worked out at 0.654; with ELK3, 0.55; with SPIC it was 0.648; with ETS2, 0.603; with ETV3, 0.615.
As to GAGGAC, the binding signal with ELK1 was determined as 0.628; in the assay with ELK3, 0.616; with SPIC, 0.603; in the assay with ETS2, 0.606; in the assay with ETV3, 0.607.
For GACAAC, the binding signal worked out at 0.92 with ELK1; 0.965 in the assay with ELK3; 0.881 with SPIC; 0.94 in the assay with ETS2; 0.946 with ETV3.
For GGGGAT, the binding signal with ELK1 was determined as 0.679; with ELK3, 0.608; in the assay with SPIC it was 0.593; with ETS2, 0.712; with ETV3 it was 0.629.
AGACTA: the binding signal with ELK1 was found to be 0.837; with ELK3, 0.803; in the assay with SPIC, 0.807; in the assay with ETS2, 0.789; in the assay with ETV3, 0.799.
In the case of GGCTGT, the binding signal in the assay with ELK1 stood at 0.747; in the assay with ELK3, 0.785; with SPIC, 0.902; in the assay with ETS2, 0.798; with ETV3 it was 0.819.
For GCAGTT the same measures were 0.879, 0.838, 0.836, 0.813 and 0.853.
Taken in the same sequence, the figures for CCGGGA were 0.528, 0.498, 0.596, 0.495 and 0.521.
As to AGGTAC, the binding signal with ELK1 is 0.891; with ELK3, 0.869; with SPIC, 0.844; with ETS2, 0.878; in the assay with ETV3, 0.93.
As to CGGTAG, the binding signal was 0.713 with ELK1; 0.692 in the assay with ELK3; 0.79 with SPIC; 0.703 in the assay with ETS2; 0.774 with ETV3.
Taken in the same sequence, the figures for CATGTC were 0.78, 0.749, 0.792, 0.835 and 0.841.
On to CGTAGT, for which the binding signal in the assay with ELK1 turned out to be 0.792; with ELK3 it was 0.783; with SPIC, 0.781; with ETS2, 0.788; with ETV3, 0.841.
In the case of CGGGAA, the binding signal came out at 0.802 with ELK1; 0.741 with ELK3; 0.835 with SPIC; 0.755 with ETS2; 0.783 with ETV3.
For the sequence TGAGAC, the binding signal turned out to be 0.558 with ELK1; 0.621 with ELK3; 0.578 with SPIC; 0.58 with ETS2; 0.528 with ETV3.
With GACTAA, the binding signal with ELK1 worked out at 0.924; in the assay with ELK3, 0.946; with SPIC, 0.911; with ETS2, 0.912; with ETV3, 0.864.
Regarding GAGACA, the binding signal with ELK1 came to 0.376; in the assay with ELK3, 0.405; with SPIC, 0.357; with ETS2, 0.397; with ETV3, 0.369.
